Results are given in words; binding and its absence hold for the method and conditions named. For some of these results: Sequences can lack the tags named with a protein.
What was measured:
CXCL4_HUMAN (human) [1] = biological target: CXCL4_HUMAN (human) (UniProt P02776); experiment: BLI, empty cell the 12th table, row 45, column 5
CX3CL1_HUMAN (human) [2] = biological target: CX3CL1_HUMAN (human) (UniProt P78423); experiment: BLI, empty cell the 12th table, row 41, column 5
CXCL6_HUMAN (human) [3] = biological target: CXCL6_HUMAN (human) (UniProt P80162); experiment: BLI, empty cell the 12th table, row 47, column 5
CXCL7_HUMAN (human) [4] = biological target: CXCL7_HUMAN (human) (UniProt P02775); experiment: BLI, empty cell the 12th table, row 48, column 5
CXCL8_HUMAN (human) [5] = biological target: CXCL8_HUMAN (human) (UniProt P10145); experiment: BLI, empty cell the 12th table, row 49, column 5
CXCL1_HUMAN (human) [6] = biological target: CXCL1_HUMAN (human) (UniProt P09341); experiment: BLI, empty cell the 12th table, row 42, column 5
CXCL2_HUMAN (human) [7] = biological target: CXCL2_HUMAN (human) (UniProt P19875); experiment: BLI, empty cell the 12th table, row 43, column 5
CXCL3_HUMAN (human) [8] = biological target: CXCL3_HUMAN (human) (UniProt P19876); experiment: BLI, empty cell the 12th table, row 44, column 5
CXCL9_HUMAN (human) [9] = biological target: CXCL9_HUMAN (human) (UniProt Q07325); experiment: BLI, empty cell the 12th table, row 50, column 5
CCL28_HUMAN (human) [10] = biological target: CCL28_HUMAN (human) (UniProt Q9NRJ3); experiment: BLI, empty cell the 12th table, row 40, column 5
XCL1_HUMAN (human) [11] = biological target: T1, XCL1_HUMAN (human) (UniProt P47992); experiment: BLI, empty cell the 12th table, row 59, column 5
T1 sequence: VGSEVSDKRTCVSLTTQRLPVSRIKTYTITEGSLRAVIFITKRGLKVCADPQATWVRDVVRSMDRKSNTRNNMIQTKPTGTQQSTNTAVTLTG

By UniProt entry, the sequences of proteins in these tests, tags left out. Residues count along the entry.
UniProt P02776, residues 32-101: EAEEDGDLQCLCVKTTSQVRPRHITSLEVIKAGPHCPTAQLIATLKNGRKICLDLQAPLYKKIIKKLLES
UniProt P78423, residues 25-100: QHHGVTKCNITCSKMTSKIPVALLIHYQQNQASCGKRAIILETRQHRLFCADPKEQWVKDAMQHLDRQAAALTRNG
UniProt P80162, residues 38-114: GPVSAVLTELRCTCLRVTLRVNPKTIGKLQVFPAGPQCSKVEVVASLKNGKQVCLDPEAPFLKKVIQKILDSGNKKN
UniProt P02775, residues 59-128: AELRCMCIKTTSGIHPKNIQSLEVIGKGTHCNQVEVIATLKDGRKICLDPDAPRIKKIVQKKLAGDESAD
UniProt P10145, residues 28-99: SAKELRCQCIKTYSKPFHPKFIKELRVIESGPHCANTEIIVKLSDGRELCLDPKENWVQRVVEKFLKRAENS
UniProt P09341, residues 35-107: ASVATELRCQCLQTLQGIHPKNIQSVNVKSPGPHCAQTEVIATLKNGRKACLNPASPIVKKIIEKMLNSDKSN
UniProt P19875, residues 35-107: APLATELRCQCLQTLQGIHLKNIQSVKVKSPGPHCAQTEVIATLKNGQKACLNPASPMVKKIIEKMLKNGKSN
UniProt P19876, residues 35-107: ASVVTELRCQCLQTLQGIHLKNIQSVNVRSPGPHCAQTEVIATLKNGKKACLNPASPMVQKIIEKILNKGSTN
UniProt Q07325, residues 23-125: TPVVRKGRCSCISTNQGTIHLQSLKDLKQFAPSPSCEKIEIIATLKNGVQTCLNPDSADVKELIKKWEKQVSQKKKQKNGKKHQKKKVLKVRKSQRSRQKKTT
UniProt Q9NRJ3, residues 23-127: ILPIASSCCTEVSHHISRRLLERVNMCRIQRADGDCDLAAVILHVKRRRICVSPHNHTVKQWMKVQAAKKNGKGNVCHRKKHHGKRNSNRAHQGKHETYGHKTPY
UniProt O43927, residues 23-109: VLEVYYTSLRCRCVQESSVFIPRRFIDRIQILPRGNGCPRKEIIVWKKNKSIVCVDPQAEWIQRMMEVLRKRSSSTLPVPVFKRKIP
UniProt O95715, residues 35-111: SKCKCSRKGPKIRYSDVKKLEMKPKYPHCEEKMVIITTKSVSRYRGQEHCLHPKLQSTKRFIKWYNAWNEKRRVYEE
UniProt O14625, residues 22-94: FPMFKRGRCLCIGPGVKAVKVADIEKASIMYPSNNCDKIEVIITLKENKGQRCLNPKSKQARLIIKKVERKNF
UniProt P42830, residues 41-114: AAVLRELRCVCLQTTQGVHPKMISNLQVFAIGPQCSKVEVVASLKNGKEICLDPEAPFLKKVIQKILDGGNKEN
UniProt P02778, residues 22-98: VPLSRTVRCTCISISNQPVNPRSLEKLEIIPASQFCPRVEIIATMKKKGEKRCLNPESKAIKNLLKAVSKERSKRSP
UniProt P48061, residues 22-89: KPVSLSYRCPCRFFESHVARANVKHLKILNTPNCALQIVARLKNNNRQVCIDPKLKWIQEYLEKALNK
UniProt Q9Y4X3, residues 25-112: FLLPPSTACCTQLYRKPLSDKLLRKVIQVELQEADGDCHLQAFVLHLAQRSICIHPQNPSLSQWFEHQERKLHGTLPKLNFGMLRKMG
UniProt O00585, residues 24-134: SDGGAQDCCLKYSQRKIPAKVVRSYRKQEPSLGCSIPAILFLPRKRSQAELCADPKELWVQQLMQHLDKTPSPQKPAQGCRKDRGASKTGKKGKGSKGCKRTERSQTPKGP
UniProt O00626, residues 25-93: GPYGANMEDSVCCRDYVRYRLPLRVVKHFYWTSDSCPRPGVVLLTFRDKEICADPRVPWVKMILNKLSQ
UniProt P55773, residues 22-120: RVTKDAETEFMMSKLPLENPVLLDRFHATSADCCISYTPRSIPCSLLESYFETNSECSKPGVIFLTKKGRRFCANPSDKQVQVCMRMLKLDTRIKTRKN
UniProt P78556, residues 27-96: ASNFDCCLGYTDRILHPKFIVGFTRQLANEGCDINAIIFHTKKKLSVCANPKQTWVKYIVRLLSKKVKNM
UniProt Q16627, residues 22-93: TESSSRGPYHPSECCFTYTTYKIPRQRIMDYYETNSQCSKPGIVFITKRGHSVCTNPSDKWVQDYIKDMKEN
UniProt Q99731, residues 22-98: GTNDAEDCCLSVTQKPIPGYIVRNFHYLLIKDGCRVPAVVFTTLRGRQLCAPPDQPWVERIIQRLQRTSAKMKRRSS
UniProt Q16663, residues 22-113: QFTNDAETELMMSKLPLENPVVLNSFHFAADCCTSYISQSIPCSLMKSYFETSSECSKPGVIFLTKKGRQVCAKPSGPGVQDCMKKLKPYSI

CXCL13_HUMAN (human) [12] = biological target: CXCL13_HUMAN (human) (UniProt O43927); experiment: BLI, empty cell the 12th table, row 54, column 5
CXCL14_HUMAN (human) [13] = biological target: CXCL14_HUMAN (human) (UniProt O95715); experiment: BLI, empty cell the 12th table, row 55, column 5
CXCL11_HUMAN (human) [14] = biological target: CXCL11_HUMAN (human) (UniProt O14625); experiment: BLI, empty cell the 12th table, row 52, column 5
CXCL5_HUMAN (human) [15] = biological target: CXCL5_HUMAN (human) (UniProt P42830); experiment: BLI, empty cell the 12th table, row 46, column 5
CXCL10_HUMAN (human) [16] = biological target: CXCL10_HUMAN (human) (UniProt P02778); experiment: BLI, empty cell the 12th table, row 51, column 5
CXCL9_HUMAN (human) [17] = biological target: CXCL9_HUMAN (human) (UniProt Q07325); experiment: BLI, empty cell the 12th table, row 50, column 6
CXCL4_HUMAN (human) [18] = biological target: CXCL4_HUMAN (human) (UniProt P02776); experiment: BLI, empty cell the 12th table, row 45, column 6
CX3CL1_HUMAN (human) [19] = biological target: CX3CL1_HUMAN (human) (UniProt P78423); experiment: BLI, empty cell the 12th table, row 41, column 6
CXCL6_HUMAN (human) [20] = biological target: CXCL6_HUMAN (human) (UniProt P80162); experiment: BLI, empty cell the 12th table, row 47, column 6
CXCL10_HUMAN (human) [21] = biological target: CXCL10_HUMAN (human) (UniProt P02778); experiment: BLI, empty cell the 12th table, row 51, column 6
CCL28_HUMAN (human) [22] = biological target: CCL28_HUMAN (human) (UniProt Q9NRJ3); experiment: BLI, empty cell the 12th table, row 40, column 6
CXCL11_HUMAN (human) [23] = biological target: CXCL11_HUMAN (human) (UniProt O14625); experiment: BLI, empty cell the 12th table, row 52, column 6
CXCL5_HUMAN (human) [24] = biological target: CXCL5_HUMAN (human) (UniProt P42830); experiment: BLI, empty cell the 12th table, row 46, column 6
CCL28_HUMAN (human) [25] = biological target: CCL28_HUMAN (human) (UniProt Q9NRJ3); experiment: BLI
CXCL14_HUMAN (human) [26] = biological target: CXCL14_HUMAN (human) (UniProt O95715); experiment: BLI, empty cell the 12th table, row 55, column 6
CXCL7_HUMAN (human) [27] = biological target: CXCL7_HUMAN (human) (UniProt P02775); experiment: BLI, empty cell the 12th table, row 48, column 6
CXCL13_HUMAN (human) [28] = biological target: CXCL13_HUMAN (human) (UniProt O43927); experiment: BLI, empty cell the 12th table, row 54, column 6
CXCL1_HUMAN (human) [29] = biological target: CXCL1_HUMAN (human) (UniProt P09341); experiment: BLI, empty cell the 12th table, row 42, column 6
CXCL8_HUMAN (human) [30] = biological target: CXCL8_HUMAN (human) (UniProt P10145); experiment: BLI, empty cell the 12th table, row 49, column 6
CXCL12_HUMAN (human) [31] = biological target: CXCL12_HUMAN (human) (UniProt P48061); experiment: BLI, empty cell the 12th table, row 53, column 6
XCL1_HUMAN (human) [32] = biological target: T1, XCL1_HUMAN (human); experiment: BLI, empty cell the 12th table, row 59, column 6
CCL28_HUMAN (human) [33] = biological target: CCL28_HUMAN (human) (UniProt Q9NRJ3); experiment: BLI, empty cell the 12th table, row 40, column 12
CX3CL1_HUMAN (human) [34] = biological target: CX3CL1_HUMAN (human) (UniProt P78423); experiment: BLI, empty cell the 12th table, row 41, column 12
CXCL7_HUMAN (human) [35] = biological target: CXCL7_HUMAN (human) (UniProt P02775); experiment: BLI, empty cell the 12th table, row 48, column 12
CCL27_HUMAN (human) = CCL27_HUMAN (human) (UniProt Q9Y4X3); experiment: BLI, empty cell the 12th table, row 38, column 12
CXCL6_HUMAN (human) [36] = biological target: CXCL6_HUMAN (human) (UniProt P80162); experiment: BLI, empty cell the 12th table, row 47, column 12
CXCL5_HUMAN (human) [37] = biological target: CXCL5_HUMAN (human) (UniProt P42830); experiment: BLI, empty cell the 12th table, row 46, column 12
XCL1_HUMAN (human) [38] = biological target: T1, XCL1_HUMAN (human); experiment: BLI, empty cell the 12th table, row 59, column 12
CXCL3_HUMAN (human) [39] = biological target: CXCL3_HUMAN (human) (UniProt P19876); experiment: BLI, empty cell the 12th table, row 44, column 12
CCL21_HUMAN (human) = CCL21_HUMAN (human) (UniProt O00585); experiment: BLI, empty cell the 12th table, row 32, column 12
CXCL13_HUMAN (human) [40] = biological target: CXCL13_HUMAN (human) (UniProt O43927); experiment: BLI, empty cell the 12th table, row 54, column 12
CCL22_HUMAN (human) = CCL22_HUMAN (human) (UniProt O00626); experiment: BLI, empty cell the 12th table, row 33, column 12
CCL23_HUMAN (human) = CCL23_HUMAN (human) (UniProt P55773); experiment: BLI, empty cell the 12th table, row 34, column 12
CCL20_HUMAN (human) = CCL20_HUMAN (human) (UniProt P78556); experiment: BLI, empty cell the 12th table, row 30, column 12
CCL14_HUMAN (human) = CCL14_HUMAN (human) (UniProt Q16627); experiment: BLI, empty cell the 12th table, row 24, column 12
CXCL14_HUMAN (human) [41] = biological target: CXCL14_HUMAN (human) (UniProt O95715); experiment: BLI, empty cell the 12th table, row 55, column 12
CXCL12_HUMAN (human) [42] = biological target: CXCL12_HUMAN (human) (UniProt P48061); experiment: BLI, empty cell the 12th table, row 53, column 12
CXCL1_HUMAN (human) [43] = biological target: CXCL1_HUMAN (human) (UniProt P09341); experiment: BLI, empty cell the 12th table, row 42, column 12
CXCL4_HUMAN (human) [44] = biological target: CXCL4_HUMAN (human) (UniProt P02776); experiment: BLI, empty cell the 12th table, row 45, column 12
CXCL9_HUMAN (human) [45] = biological target: CXCL9_HUMAN (human) (UniProt Q07325); experiment: BLI, empty cell the 12th table, row 50, column 12
CCL19_HUMAN (human) = CCL19_HUMAN (human) (UniProt Q99731); experiment: BLI, empty cell the 12th table, row 29, column 12
CXCL2_HUMAN (human) [46] = biological target: CXCL2_HUMAN (human) (UniProt P19875); experiment: BLI, empty cell the 12th table, row 43, column 12
CCL15_HUMAN (human) = CCL15_HUMAN (human) (UniProt Q16663); experiment: BLI, empty cell the 12th table, row 25, column 12
CXCL8_HUMAN (human) [47] = biological target: CXCL8_HUMAN (human) (UniProt P10145); experiment: BLI, empty cell the 12th table, row 49, column 12

Measured: binding

B1: P991_AMBCA (protein)
chain: ENGEGTTQPDYDNSTDYYNYEDFKCTCPAPHLNNTNGTVMKPIGCYYTCNVTRCTAPDTYPCYNLTEHQAKNLTTSPTTLCAVGNCDHGICVPNGTKELCFKAPNLEE
no binding (tested: 300 nM): CXCL4_HUMAN (human) [1] | CX3CL1_HUMAN (human) [2] | CXCL6_HUMAN (human) [3] | CXCL7_HUMAN (human) [4] | CXCL8_HUMAN (human) [5] | CXCL1_HUMAN (human) [6] | CXCL2_HUMAN (human) [7] | CXCL3_HUMAN (human) [8] | CXCL9_HUMAN (human) [9] | CCL28_HUMAN (human) [10] | XCL1_HUMAN (human) [11] | CXCL13_HUMAN (human) [12] | CXCL14_HUMAN (human) [13] | CXCL11_HUMAN (human) [14] | CXCL5_HUMAN (human) [15] | CXCL10_HUMAN (human) [16]

B2: P1243_AMBAM (protein)
chain: RNHTEDNSTEYYDYEEARCACPARHLNNTNGTVLKLLGCHYFCNGTLCTAPDGYPCYNLTAQQVRTLTTYPNTSCAVGVCMKGTCVKNGTMEQCFKTP
no binding (tested: 300 nM): CXCL9_HUMAN (human) [17] | CXCL4_HUMAN (human) [18] | CX3CL1_HUMAN (human) [19] | CXCL6_HUMAN (human) [20] | CXCL10_HUMAN (human) [21] | CCL28_HUMAN (human) [22] | CXCL11_HUMAN (human) [23] | CXCL5_HUMAN (human) [24] | CCL28_HUMAN (human) [25] | CXCL14_HUMAN (human) [26] | CXCL7_HUMAN (human) [27] | CXCL13_HUMAN (human) [28] | CXCL1_HUMAN (human) [29] | CXCL8_HUMAN (human) [30] | CXCL12_HUMAN (human) [31] | XCL1_HUMAN (human) [32]

B3: P985_AMBPA (protein)
chain: DEESEELGASTDVDYEELDANCTCPAPALTSTRNNKHYPLGCIYNCSSYNCTIPDGTPCYVLTLGEVKEHLQIGSTVPNCTCGLCRNGTCVSNGTVEECFAVEEIEET
no binding (tested: 300 nM): CCL28_HUMAN (human) [33] | CX3CL1_HUMAN (human) [34] | CXCL7_HUMAN (human) [35] | CCL27_HUMAN (human) | CXCL6_HUMAN (human) [36] | CXCL5_HUMAN (human) [37] | XCL1_HUMAN (human) [38] | CXCL3_HUMAN (human) [39] | CCL21_HUMAN (human) | CXCL13_HUMAN (human) [40] | CCL22_HUMAN (human) | CCL23_HUMAN (human) | CCL20_HUMAN (human) | CCL14_HUMAN (human) | CXCL14_HUMAN (human) [41] | CXCL12_HUMAN (human) [42] | CXCL1_HUMAN (human) [43] | CXCL4_HUMAN (human) [44] | CXCL9_HUMAN (human) [45] | CCL19_HUMAN (human) | CXCL2_HUMAN (human) [46] | CCL15_HUMAN (human) | CXCL8_HUMAN (human) [47]
